Assay results: paper PMC3235111
These are yes or no findings as the source states them, for the method shown. Binding seen in cells or lysates may run through a third protein. Some entries that bind do so weakly or less than the wild type. Sequences can lack the tags named with a protein.

Molecular target: T1, human Phosducin-like protein 3 (PhLP3), untagged (human) (UniProt O14530)
T1 sequence: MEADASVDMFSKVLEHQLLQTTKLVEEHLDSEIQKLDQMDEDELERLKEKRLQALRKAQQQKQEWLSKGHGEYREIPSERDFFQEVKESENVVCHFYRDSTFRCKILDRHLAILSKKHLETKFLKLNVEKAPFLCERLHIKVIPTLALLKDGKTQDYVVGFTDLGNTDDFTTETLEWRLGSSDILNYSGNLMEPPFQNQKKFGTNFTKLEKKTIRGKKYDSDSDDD
Test: co-IP; data not shown; immunoprecipitates from CHOK1 cells transfected with PhLP3 or PhLP3V5 plasmid; blots for CCTβ, CCTα, actin and β-tubulin

- binding: binds
Substance: CCTβ (beta subunit of the chaperonin containing TCP1) (from UniProt G3HZ42 1-535)
